According to publication PMC11117661, “Development of a Novel In Silico Classification Model to Assess Reactive Metabolite Formation in the Cysteine Trapping Assay and Investigation of Important Substructures” (Biomolecules, 2024):

Assay: cysteine trapping assay ([35S]cysteine, HPLC with radiomatic detector) for reactive metabolites
Conditions: human liver microsome 2 mg/mL, L-[35S]-Cysteine, NADPH, 37 °C, 2 h

RI integrated area: 38.4 count
Compound: COc1cc2c(cc1OC)C(=O)C(CC1CCN(Cc3ccccc3)CC1)C2 (stereo not shown) [Donepezil]
